In article PMC10257679:
These are yes or no findings as the source states them, for the method shown. Binding seen in cells or lysates may run through a third protein. Some binding calls cover weakened binding; strength is not graded here. Where a sequence is shown, tags or fusion partners need not be part of it.

Protein sequences, listed by entry. Tags and fused reporters are not part of them.
UniProt P97471: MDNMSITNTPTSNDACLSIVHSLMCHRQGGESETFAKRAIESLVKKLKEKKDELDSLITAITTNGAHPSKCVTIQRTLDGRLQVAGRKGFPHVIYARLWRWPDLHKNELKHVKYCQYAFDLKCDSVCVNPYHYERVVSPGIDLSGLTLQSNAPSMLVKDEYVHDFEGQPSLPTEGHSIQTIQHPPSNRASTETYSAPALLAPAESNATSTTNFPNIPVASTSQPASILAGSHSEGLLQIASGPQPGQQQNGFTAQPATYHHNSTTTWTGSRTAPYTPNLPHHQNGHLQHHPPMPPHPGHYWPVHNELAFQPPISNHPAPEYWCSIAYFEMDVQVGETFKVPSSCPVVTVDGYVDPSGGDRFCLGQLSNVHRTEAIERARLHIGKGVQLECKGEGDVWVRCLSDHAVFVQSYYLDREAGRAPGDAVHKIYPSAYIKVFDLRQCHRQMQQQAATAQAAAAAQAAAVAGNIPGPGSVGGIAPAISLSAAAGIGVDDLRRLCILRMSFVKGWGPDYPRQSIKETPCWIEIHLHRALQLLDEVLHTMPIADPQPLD

Molecular target: T1, GST-SENP2^363–589 fusion protein segment (UniProt Q9HC62)
T1 sequence: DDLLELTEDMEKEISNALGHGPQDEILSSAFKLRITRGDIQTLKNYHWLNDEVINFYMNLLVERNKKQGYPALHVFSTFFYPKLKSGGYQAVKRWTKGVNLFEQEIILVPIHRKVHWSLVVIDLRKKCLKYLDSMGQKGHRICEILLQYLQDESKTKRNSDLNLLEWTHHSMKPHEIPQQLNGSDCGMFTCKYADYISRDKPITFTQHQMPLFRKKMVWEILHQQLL
Assay: pull-down; about 290 µg of pathogenic Th17 lysate (25 mM HEPES pH 7.5, 150 mM NaCl, 1 mM EDTA, 1 mM EGTA, 0.5% Triton X-100, 1% NP-40 alternative) incubated with 10 µg GST-SENP2 363-589 at 4 °C overnight, then Glutathione Sepharose 4B beads at 4 °C for 3 h; Smad4 detected by immunoblotting; control: beads alone; only the target purified

## Smad4 (from UniProt P97471 1-551)
  binding: binds
